Hit rate of the full screen: of about 52,000 sequences, about 210 (0.4%) were called active.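 Rule for the calls: active = gene whose silencing raises cell survival under the drug, median off-target-corrected z-score across its silencing RNAs 2 or more; inactive = the rest.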 The list shows a part of the results.
Assay: Resistance to Poly (ADP-Ribose) Polymerase inhibitor: Gene Identification via Genome-wide siRNA Screen
Details: mouse BRCA2 R2336H ES cells, olaparib, CellTiter-Glo viability; stronger effect = higher value
Outline: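 Mouse BRCA2 R2336H ES cells were reverse-transfected with siRNA (20 nM final), treated at 48 h with 500 nM olaparib, and read by CellTiter-Glo after 72 h. Scores: MAD-based z per siRNA, median per gene, seed off-target correction.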
In the case of “GGAAAAGCUAAUCUUACUATT against D13Wsu177e”, the z-score is reported as inactive: 0.855.
With “GGUCAUAGAUGAGCUUAGUTT against 2900057D21Rik” the z-score was inactive: -0.721.
In the case of CCAGGAUCCAAAGAGUAUUTT against Olfr521, the z-score is reported as inactive: 0.0237.
With GGGCAAACGGAGGAAUGAATT against Amac the z-score was inactive: -1.81.
For GGAAGAGAAUAAAACCUCATT against Ptpra, the z-score was inactive: -0.25.
For ACAGGAGUCCAUAGCCGUCTT against Aspscr1, the z-score was inactive: -2.69.
For GCCACUUUAGUAUGGAAUGTT against Nxt1, the z-score was inactive: -0.362.
In the case of “GGCAGAAAAGAGAUGUUCUTT against 1810046J19Rik”, the z-score is reported as inactive: -0.982.
With CCUGAAGUGGAGAUUCAACTT against Kcnj6 the z-score was inactive: 0.574.
For CGCAGGAUUGAGUUAAUUATT against LOC432589, the z-score was inactive: 0.245.
With GGCAAAGAAUACUAUGUGUTT against Gm1019 the z-score was inactive: -0.666.
With GCUGAUGGUGUAUAACUCGTT against Gorasp1 the z-score was inactive: 1.45.
For GCUCAUAUACUCUAAAUUGTT against V1rd1, the z-score was inactive: 0.395.
For “GGAGAAGUACGUUUAAAUGTT against E430034L04Rik”, the z-score was inactive: 0.715.
In the case of GGGUAACAUGAAGAUCAAUTT against Rnf19, the z-score is reported as inactive: -1.26.
For CCAUUUAAGGUCAUCUGCATT against Nxph2, the z-score was inactive: -0.64.
For “GCAGUUGGCAGGCUAAAAATT against 5230400G24Rik”, the z-score was inactive: 0.761.
In the case of GCACAGAGGAUGUACGUUATT against Cstad, the z-score is reported as inactive: -0.623.
For GGUGCUCACGUUUUUCUUATT against B3galt3, the z-score was inactive: 1.23.
In the case of GGACGUAGAUCAUUUCAAUTT against Afm, the z-score is reported as inactive: -0.896.
In the case of GGAAAAGAGAAGAAGGCACTT against Taf6, the z-score is reported as inactive: -0.0616.
In the case of GCUAGUUGGGAUACUCAAGTT against Mpp6, the z-score is reported as inactive: -0.715.
With GGAGACGAGAGGAUCCUCUTT against Chga the z-score was inactive: 0.626.
For GGUACCCACUAGAGGAUCATT against Madd, the z-score was inactive: -0.535.
For GGCUAAUCACCAAUUUCUUTT against BC005682, the z-score was inactive: 0.32.
With “GCCUUCUUCGACCGCUCAUTT against 2810405K07Rik” the z-score was inactive: 0.219.
With GCAUAUUCAGCAACAGGUATT against Trim24 the z-score was inactive: 0.882.
With CGGUACGAGAUGCAAAAAATT against Prkca the z-score was inactive: 1.62.
In the case of GGCAAUAAUAAAUAGCACCTT against Homer1, the z-score is reported as inactive: -0.254.
With “GCCAUACGAUCUGCAUUUCTT against A930014K01Rik” the z-score was inactive: -1.22.
For GGUUGAUAGUUGUGAAAAGTT against Mclc, the z-score was inactive: -1.04.
For GCAGCAUAAUUGCUUGCUATT against Pde8b, the z-score was inactive: -0.819.
For “GGUGAAGAAGUGACACCUGTT against 2700055K07Rik”, the z-score was inactive: 0.292.
For “GCUACUCAGUCUUUACUAUTT against 1200003M09Rik”, the z-score was inactive: -3.33.
In the case of GGAUCCUAGGAUAGAAAAUTT against Asgr2, the z-score is reported as inactive: 0.781.
For CCCUCAACUUUCAGAUCAGTT against Ard1, the z-score was inactive: 0.611.
With CGACUUGAUUUCAAAACAUTT against Fbxl13 the z-score was inactive: 0.0977.
For GGCCGAGGUUUUGUUCUUUTT against Polr2g, the z-score was inactive: -3.59.
For GCCAUUUAUCCGGUACGACTT against Arp3b, the z-score was inactive: 0.09.
In the case of GGAGGAGACUGAAAUUCCATT against Prkcdbp, the z-score is reported as inactive: 0.506.
In the case of AAGCUGAGAACAGUCGAAGTT against Vasp, the z-score is reported as inactive: -0.57.
With CGUGGUACACUGAAGACUUTT against Mmp1a the z-score was inactive: 0.139.
For “GGGAUCAAGUUAAAUAGACTT against 1810032O08Rik”, the z-score was inactive: 1.14.
For CCUAUGAAACCCAUCAUUATT against Farp2, the z-score was inactive: 0.717.
With GGGAGACAAGUUCAUCAAATT against Gtf2e1 the z-score was inactive: 0.697.
For GGAAUGUUUCUUUAUCACATT against Slc35e4, the z-score was inactive: 0.975.
For “CCUACUGGUUGAAAAUAUUTT against 2210012G02Rik”, the z-score was inactive: -0.238.
For CGAGACAGUUUCCAUAGCGTT against Mint, the z-score was inactive: -0.198.
With GGUAUGUUUUUCUCACAAGTT against Ehd4 the z-score was inactive: -0.231.
In the case of GGACAACUCCCAUAGCCAUTT against Sin3b, the z-score is reported as inactive: 0.325.
With GUAAACCACUGAAAAACCATT against Siah1b the z-score was inactive: 1.22.
In the case of GGCCAUCAGAGUCAACUGUTT against Immt, the z-score is reported as inactive: 0.123.
In the case of “CCAUAUGUAAAGUGAAACATT against A530013C23Rik”, the z-score is reported as inactive: 0.36.
In the case of GGUCACUGCUAAAGCCUGATT against Stoml3, the z-score is reported as inactive: -1.43.
With GGAAAUGUACCUGUUUGUUTT against Dnase1l2 the z-score was inactive: -0.984.
With CGCGCAUCCAGGUUAUCUUTT against Slc7a10 the z-score was inactive: 1.97.
With GGCUGUAUACCAAUAAAAATT against B4galt6 the z-score was inactive: 1.53.
For GGAGACUGUGUUUACAGUATT against Olfr347, the z-score was inactive: -0.75.
For GGGUCUAUGAGCUAAUUAUTT against Psmd5, the z-score was inactive: -0.391.
With GGAAGUGGGCAGCAUCAUUTT against Pcbp4 the z-score was inactive: -1.56.
In the case of GGAAAACCAUGAAGCCAUGTT against Dnase1l3, the z-score is reported as inactive: -1.12.
With GGGUGGAGACUUGGAAAUGTT against Spag11 the z-score was inactive: -0.202.
For GGAAGAAGUAGAGAUGCUATT against Myl6, the z-score was inactive: 0.46.
With GGAAGUUGGAAAAACAUUGTT against 6.72E+21 the z-score was inactive: 0.408.
With GCUACACCAUUGUAAGAAGTT against Gypa the z-score was inactive: -0.32.
With GGCUACUUCAUGCUGUAUATT against Bcs1l the z-score was inactive: 0.345.
With GCGAGUUGGAAUUGAGAUCTT against Casp8 the z-score was inactive: 0.155.
For “GGCUCAGAUACAUCUGUUATT against 1700024K14Rik”, the z-score was inactive: -1.93.
For GGAUGUCCCGAAGCUAAGGTT against Ggnbp1, the z-score was inactive: -0.104.
For “GGAAGUAGGAGAGGAAAGUTT against D930020B18Rik”, the z-score was inactive: 0.225.
In the case of “GGCCUUCUUGCCAACUACATT against D030070L09Rik”, the z-score is reported as inactive: 0.608.
With GGAGAGUAACAAUUAUGAATT against Pcdha9 the z-score was inactive: 0.501.
In the case of GGCAACAAAAAAAUCCCAATT against Cd160, the z-score is reported as inactive: 0.861.
In the case of GCUAGUUUGACAGAGGCCUTT against Prelp, the z-score is reported as inactive: -0.911.
In the case of “CGAGGUUCGGACCUGUAAATT against 2610036N15Rik”, the z-score is reported as inactive: 0.782.
With GCCAUUACCCGGUAUAUGATT against Sesn1 the z-score was inactive: 0.919.
With GGUCUUCAGACCAGAAACATT against Hsd3b2 the z-score was inactive: -1.74.
In the case of GCUUCUAUGGCAGGAUAAATT against Cd28, the z-score is reported as inactive: -0.943.
In the case of GGAGCUACCUAUCCUUUGUTT against Dbccr1, the z-score is reported as inactive: -1.03.
In the case of “GCUCGAUAUUUUGAAGUCCTT against 1700051C09Rik”, the z-score is reported as inactive: -0.724.
For GCCUAUAAAACCUUUGCCUTT against Loxl2, the z-score was inactive: -1.4.
In the case of GCUUUCGGAUGAACUUCGGTT against DXImx47e, the z-score is reported as inactive: 1.12.
For CCUUUUGAAUGAUAGGGUGTT against Tbcd, the z-score was inactive: -0.373.
With GGUCAAUGCUGUUUUUGUUTT against Mxi1 the z-score was inactive: 0.526.
With GGAUGUUAAACUACAUUGATT against Ropn1 the z-score was inactive: -0.621.
With CGCAUAGAGCCUGUCCUCATT against Spink3 the z-score was inactive: 1.19.
With GGUUCAAGUUCGCAUACAGTT against Rnf111 the z-score was inactive: -1.05.
In the case of GCACGUUGAACAAUGAAGATT against Unc13a, the z-score is reported as inactive: -0.144.
With GGAAAAGAAGCCAAUUCCUTT against Smpx the z-score was inactive: 0.0446.
With CCAGGAUUGCUGUUCUGAATT against D8Wsu151e the z-score was inactive: 1.18.
In the case of GCAUUACUAUGAGCGGGACTT against Pygb, the z-score is reported as inactive: 0.77.
In the case of CCUUACUUGAUAAUCCAAATT against Dlgh1, the z-score is reported as inactive: -0.239.
With CGUAUAACUAACCUGUUGATT against V1ra7 the z-score was inactive: 0.875.
In the case of GCAAGUGAUGAACCAGUUCTT against Zcwcc1, the z-score is reported as inactive: -1.62.
In the case of GCCAAUCUGGUGAUACUUCTT against V1re13, the z-score is reported as inactive: -2.11.
In the case of “CCACUUGAGUAUAAGCAAUTT against Zfp422-rs1”, the z-score is reported as inactive: -0.313.
In the case of GGAAAAGAAGAAGCAGAUUTT against Incenp, the z-score is reported as inactive: -2.17.
With “CCUGGACUGAGAAUAUAGCTT against 2610008E11Rik” the z-score was inactive: -0.722.
For GCAAAACGGCUUUUGAAUGTT against Zfp454, the z-score was inactive: 1.12.
For GCUUUGUGAUGGAUUACUATT against Ccl4, the z-score was inactive: 1.44.
In the case of GGCUUGUGGAAAUUUUGGGTT against Paics, the z-score is reported as inactive: -1.57.
In the case of GGUUGUAAUGAGAAAGUGATT against H2-Ke6, the z-score is reported as inactive: -0.728.
For GGGUUCAACACAGCCAAUGTT against BC026682, the z-score was inactive: -0.415.
For “GCUGCUUAGAUACAUUUUUTT against 4632434I11Rik”, the z-score was inactive: 0.128.
